{
  "sequences": {"note": "Protein sequences, listed by entry. Tags and fused reporters are not part of them.", "UniProt P50613, whole entry": "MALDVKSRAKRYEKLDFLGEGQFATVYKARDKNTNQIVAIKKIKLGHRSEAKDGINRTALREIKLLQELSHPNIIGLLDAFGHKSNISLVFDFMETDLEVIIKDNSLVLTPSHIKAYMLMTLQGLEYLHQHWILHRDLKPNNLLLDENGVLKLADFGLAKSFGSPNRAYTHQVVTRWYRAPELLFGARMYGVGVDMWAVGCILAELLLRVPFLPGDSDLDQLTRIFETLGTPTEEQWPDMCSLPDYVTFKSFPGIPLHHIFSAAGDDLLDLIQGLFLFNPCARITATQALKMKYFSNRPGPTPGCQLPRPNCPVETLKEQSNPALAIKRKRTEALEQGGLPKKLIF", "UniProt P51946, whole entry partner": "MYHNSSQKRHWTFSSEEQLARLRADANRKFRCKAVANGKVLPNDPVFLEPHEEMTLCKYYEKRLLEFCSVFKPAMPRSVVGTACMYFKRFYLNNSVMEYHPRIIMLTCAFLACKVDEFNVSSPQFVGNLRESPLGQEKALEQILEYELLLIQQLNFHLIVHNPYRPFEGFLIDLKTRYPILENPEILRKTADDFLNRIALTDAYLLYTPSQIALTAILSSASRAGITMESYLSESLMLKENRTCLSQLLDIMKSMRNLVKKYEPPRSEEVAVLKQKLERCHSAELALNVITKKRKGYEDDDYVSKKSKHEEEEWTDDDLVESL", "UniProt P51948, whole entry partner": "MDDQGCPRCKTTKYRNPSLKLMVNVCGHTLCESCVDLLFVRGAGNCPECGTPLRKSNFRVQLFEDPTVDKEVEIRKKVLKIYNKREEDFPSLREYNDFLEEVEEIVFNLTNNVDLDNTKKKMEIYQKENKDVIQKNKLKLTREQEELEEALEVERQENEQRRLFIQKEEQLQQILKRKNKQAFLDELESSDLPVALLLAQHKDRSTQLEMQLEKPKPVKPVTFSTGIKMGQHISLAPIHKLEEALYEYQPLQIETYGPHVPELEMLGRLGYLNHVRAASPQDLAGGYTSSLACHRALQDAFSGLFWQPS"},
  "source": "patent US8067424B2",
  "about": "“Selective inhibitors for cyclin-dependent kinases” (Emory University, priority 2007, dated 2011)",
  "key": {"[1]": {"target": "CDK7 complex (CDK7, Cyclin H, MAT1) (Homo sapiens, UniProt P50613)", "assay": "CDK7/CycH/MAT1 trimeric complex kinase assay (PKLight luciferase)", "settings": "mean of three (standard deviation)"}, "MCF-7 cell line": {"system": "MCF-7 cell line", "settings": "MCF-7, SRB assay, 24 hours"}},
  "note": "Structures were worked out from names or drawings and are uncertain.",
  "data": [
    {"smiles": "CC(C)c1cnn2c(N(Cc3ccc(S(=O)(=O)N(C)C)cc3)C(=O)OC(C)(C)C)cc(Cl)nc12", "values": [
      {"measurement": "CDK7 % remaining kinase activity after incubation with 100 nM of compound", "setting": "[1]", "value": "63% (9.0)"},
      {"measurement": "TGI", "setting": "MCF-7 cell line", "value": 31, "unit": "µM"},
      {"measurement": "IC50", "setting": "MCF-7 cell line; mean of three experiments", "value": 51, "unit": "µM"},
      {"measurement": "CC50", "setting": "MCF-7 cell line; read-out: LC50", "value": 16, "unit": "µM"}
    ]}
  ]
}
